{
  "sequences": {"note": "Chains of the proteins cited; added tags and fusions are not shown. Lines headed by an entry give the natural chain unless they say otherwise; changes in a name come on top. Residues count along the entry.", "UniProt Q5VZL5": "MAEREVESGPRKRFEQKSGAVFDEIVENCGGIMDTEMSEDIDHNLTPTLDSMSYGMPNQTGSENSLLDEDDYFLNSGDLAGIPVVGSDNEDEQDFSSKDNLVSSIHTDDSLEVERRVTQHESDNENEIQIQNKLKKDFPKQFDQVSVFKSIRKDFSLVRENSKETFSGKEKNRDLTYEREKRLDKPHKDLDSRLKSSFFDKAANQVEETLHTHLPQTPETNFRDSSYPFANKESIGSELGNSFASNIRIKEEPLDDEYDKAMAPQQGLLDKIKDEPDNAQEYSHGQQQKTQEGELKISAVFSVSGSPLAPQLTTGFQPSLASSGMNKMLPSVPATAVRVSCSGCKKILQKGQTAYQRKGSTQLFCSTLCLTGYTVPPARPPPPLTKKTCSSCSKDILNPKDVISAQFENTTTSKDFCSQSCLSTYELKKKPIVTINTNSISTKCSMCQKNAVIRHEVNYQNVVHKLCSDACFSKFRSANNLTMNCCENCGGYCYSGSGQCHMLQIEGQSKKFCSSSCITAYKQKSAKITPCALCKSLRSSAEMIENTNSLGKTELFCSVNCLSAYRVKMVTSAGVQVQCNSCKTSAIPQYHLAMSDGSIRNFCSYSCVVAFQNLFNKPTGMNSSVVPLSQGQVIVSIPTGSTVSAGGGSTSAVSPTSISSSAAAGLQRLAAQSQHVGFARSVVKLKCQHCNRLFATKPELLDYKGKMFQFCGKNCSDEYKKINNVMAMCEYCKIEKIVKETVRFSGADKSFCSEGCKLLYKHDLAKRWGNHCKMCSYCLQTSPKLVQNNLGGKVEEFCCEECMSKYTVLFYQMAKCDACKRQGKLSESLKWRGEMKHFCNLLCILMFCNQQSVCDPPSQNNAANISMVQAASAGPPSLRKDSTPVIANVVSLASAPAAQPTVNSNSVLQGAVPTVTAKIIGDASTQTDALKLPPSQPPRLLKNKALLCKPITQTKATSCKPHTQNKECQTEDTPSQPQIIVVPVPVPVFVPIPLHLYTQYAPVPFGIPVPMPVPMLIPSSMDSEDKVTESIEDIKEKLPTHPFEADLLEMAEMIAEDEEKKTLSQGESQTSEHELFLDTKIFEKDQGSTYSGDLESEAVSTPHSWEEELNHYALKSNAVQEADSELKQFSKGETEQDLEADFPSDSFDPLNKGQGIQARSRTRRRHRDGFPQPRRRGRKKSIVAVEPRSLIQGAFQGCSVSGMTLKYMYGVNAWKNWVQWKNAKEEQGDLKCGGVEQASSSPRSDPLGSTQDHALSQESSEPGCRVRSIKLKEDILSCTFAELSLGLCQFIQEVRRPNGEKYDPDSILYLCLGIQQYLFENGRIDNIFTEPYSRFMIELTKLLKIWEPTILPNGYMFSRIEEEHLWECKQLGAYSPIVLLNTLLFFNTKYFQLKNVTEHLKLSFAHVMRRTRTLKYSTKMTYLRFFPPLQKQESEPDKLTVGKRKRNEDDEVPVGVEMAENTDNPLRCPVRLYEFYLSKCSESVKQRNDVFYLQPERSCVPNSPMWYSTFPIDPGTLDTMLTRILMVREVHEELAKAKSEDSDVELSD", "UniProt Q7Z3T8": "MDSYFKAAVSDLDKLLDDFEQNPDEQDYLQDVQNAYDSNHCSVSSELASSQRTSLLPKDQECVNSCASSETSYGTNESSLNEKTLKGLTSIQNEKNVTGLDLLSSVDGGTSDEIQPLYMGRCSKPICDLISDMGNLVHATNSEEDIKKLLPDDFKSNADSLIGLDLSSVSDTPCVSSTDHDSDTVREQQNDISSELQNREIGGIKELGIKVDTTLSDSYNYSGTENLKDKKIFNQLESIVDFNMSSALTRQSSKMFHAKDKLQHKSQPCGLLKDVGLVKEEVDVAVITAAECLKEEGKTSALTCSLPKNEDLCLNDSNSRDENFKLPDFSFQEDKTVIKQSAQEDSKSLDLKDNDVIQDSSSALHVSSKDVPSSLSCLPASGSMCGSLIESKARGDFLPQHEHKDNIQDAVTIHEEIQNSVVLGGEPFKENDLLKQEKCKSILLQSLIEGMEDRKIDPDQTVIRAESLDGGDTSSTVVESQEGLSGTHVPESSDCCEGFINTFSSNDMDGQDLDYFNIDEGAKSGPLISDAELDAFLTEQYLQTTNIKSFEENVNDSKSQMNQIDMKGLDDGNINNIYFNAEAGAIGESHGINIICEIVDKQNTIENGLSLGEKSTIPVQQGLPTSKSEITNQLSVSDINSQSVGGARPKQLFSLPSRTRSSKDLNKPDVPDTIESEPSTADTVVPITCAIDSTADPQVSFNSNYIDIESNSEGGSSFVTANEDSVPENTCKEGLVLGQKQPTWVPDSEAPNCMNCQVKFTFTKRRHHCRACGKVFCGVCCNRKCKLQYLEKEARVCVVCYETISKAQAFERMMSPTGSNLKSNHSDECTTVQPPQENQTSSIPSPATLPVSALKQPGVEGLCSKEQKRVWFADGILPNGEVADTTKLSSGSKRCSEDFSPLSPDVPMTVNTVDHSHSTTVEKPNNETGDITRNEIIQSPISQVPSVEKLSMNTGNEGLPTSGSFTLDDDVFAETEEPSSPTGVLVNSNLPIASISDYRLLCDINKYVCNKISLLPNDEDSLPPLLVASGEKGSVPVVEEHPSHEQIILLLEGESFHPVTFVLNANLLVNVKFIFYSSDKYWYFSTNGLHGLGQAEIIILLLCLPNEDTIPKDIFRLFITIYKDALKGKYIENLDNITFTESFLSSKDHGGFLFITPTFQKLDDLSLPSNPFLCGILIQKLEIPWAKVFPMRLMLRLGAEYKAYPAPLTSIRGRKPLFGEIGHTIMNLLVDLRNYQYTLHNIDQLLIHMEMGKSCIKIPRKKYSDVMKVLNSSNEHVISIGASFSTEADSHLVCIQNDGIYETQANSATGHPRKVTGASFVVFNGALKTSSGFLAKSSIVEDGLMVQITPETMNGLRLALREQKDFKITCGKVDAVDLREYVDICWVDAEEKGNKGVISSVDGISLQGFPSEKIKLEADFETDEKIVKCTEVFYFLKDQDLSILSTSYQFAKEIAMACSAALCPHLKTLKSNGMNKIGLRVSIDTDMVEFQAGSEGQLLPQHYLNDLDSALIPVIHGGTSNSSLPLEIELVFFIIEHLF", "UniProt Q96JP5": "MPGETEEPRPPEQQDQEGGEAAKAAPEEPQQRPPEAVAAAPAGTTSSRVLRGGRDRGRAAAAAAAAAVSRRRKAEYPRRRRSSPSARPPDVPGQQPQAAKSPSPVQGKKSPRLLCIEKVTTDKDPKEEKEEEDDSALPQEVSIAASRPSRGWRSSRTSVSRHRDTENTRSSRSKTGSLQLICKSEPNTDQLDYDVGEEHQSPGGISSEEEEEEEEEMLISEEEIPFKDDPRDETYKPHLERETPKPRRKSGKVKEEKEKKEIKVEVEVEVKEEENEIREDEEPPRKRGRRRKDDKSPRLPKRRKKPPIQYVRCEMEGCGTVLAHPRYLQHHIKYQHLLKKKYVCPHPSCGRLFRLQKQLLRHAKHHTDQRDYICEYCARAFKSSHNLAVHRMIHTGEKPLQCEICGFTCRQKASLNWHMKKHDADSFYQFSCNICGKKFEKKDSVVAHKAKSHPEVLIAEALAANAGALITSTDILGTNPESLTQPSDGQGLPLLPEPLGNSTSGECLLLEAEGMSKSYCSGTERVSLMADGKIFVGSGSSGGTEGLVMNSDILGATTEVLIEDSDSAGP", "UniProt Q9NP64": "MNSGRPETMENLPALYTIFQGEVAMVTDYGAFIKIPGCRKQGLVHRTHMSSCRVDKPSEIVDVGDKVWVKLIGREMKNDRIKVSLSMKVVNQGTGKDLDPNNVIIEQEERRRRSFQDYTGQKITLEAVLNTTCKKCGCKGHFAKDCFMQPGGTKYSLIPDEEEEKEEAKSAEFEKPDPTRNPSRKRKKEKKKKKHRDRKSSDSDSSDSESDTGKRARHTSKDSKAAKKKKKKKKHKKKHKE", "UniProt Q6NZY4, 590-609": "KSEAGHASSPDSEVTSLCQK", "UniProt Q86WB0": "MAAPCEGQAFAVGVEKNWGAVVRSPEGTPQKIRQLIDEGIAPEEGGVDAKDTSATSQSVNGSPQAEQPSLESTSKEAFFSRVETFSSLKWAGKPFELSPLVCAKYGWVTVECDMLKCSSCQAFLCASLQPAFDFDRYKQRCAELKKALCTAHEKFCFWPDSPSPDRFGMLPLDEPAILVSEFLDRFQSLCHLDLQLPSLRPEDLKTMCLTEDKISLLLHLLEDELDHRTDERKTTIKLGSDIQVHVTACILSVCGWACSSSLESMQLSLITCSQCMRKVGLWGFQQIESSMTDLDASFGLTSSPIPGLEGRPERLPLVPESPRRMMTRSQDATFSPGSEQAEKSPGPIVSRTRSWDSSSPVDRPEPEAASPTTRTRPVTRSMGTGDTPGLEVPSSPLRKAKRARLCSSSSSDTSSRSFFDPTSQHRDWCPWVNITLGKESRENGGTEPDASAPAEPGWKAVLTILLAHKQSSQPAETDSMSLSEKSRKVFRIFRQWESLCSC", "UniProt Q9H582, 193-213": "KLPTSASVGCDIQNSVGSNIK", "UniProt Q9H8U3": "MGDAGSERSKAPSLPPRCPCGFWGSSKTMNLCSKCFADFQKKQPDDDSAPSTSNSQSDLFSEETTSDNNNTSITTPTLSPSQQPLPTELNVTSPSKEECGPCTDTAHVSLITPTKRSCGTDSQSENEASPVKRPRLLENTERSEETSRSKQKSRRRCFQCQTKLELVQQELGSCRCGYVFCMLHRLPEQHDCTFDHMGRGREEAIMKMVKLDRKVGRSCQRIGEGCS", "UniProt Q5SVZ6": "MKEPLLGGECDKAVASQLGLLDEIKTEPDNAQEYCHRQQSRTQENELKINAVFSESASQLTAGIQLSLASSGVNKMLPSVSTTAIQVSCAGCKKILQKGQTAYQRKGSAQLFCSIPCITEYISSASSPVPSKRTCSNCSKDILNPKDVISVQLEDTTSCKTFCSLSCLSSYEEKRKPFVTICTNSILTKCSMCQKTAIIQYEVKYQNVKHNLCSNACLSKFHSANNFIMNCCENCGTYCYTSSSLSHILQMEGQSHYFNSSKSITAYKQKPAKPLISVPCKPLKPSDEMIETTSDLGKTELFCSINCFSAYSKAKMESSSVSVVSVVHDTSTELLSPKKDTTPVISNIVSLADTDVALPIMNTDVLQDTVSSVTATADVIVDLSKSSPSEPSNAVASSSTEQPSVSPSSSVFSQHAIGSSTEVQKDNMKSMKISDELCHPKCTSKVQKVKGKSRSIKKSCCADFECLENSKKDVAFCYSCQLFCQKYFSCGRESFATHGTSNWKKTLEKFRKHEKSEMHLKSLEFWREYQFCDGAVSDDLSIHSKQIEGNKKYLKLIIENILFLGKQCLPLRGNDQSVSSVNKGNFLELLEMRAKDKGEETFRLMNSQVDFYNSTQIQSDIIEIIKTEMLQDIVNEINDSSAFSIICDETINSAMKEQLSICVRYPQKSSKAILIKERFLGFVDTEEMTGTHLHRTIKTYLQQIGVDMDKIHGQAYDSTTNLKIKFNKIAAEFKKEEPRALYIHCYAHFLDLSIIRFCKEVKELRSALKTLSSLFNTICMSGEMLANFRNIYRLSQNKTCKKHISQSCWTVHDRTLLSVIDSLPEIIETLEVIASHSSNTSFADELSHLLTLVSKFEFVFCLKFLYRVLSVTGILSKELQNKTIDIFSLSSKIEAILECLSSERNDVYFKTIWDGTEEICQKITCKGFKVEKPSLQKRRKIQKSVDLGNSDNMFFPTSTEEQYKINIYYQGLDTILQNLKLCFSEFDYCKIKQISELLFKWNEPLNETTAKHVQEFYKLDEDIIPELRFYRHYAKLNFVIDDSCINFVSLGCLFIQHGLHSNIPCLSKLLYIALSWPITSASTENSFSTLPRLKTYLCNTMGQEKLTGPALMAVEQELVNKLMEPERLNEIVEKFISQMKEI", "UniProt P52739": "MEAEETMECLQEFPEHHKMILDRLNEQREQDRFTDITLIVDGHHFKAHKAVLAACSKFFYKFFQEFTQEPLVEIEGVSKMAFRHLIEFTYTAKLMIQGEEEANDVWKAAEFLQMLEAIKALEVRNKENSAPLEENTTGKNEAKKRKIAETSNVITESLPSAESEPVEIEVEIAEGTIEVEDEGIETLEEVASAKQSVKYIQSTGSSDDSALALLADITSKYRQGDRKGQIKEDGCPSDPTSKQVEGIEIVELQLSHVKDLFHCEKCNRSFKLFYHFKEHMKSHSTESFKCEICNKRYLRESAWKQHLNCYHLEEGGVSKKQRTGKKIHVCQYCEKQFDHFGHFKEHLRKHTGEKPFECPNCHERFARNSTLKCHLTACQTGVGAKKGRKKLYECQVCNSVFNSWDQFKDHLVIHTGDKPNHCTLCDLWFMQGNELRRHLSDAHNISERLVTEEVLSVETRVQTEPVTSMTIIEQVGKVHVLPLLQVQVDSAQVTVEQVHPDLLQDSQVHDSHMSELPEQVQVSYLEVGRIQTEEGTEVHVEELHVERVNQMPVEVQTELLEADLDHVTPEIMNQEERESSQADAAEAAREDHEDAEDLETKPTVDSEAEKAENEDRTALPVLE"},
  "source": "the supplement of paper PMC11732987",
  "about": "“Enantioselective OTUD7B fragment discovery through chemoproteomics screening and high-throughput optimisation” (Communications Chemistry, 2025)",
  "note": "Some of the results follow. The data scatter; read single values as rough.",
  "data": [
    {"compound": "ClCC(=O)N[C@H]1CCCc2ccccc12", "test": "log2 mean competition ratio of IA-DTB cysteine labelling (DMSO/compound) (log2 ratio); higher = stronger cysteine engagement by compound", "conditions": "50 µM; treatment time: 4 h; cell line lysate: HEK293T", "procedure": "(§1)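 IA-DTB competitive cysteine chemoproteomics in HEK293T RIPA lysate. Lysates were treated with compound 29 or 30 at 50 or 200 µM for 4 h, then IA-DTB (500 µM, 1 h), trypsin-digested, NeutrAvidin-enriched and analysed by diaPASEF. Competition ratio = intensity DMSO / intensity compound (n=4 treated, n=64 DMSO); binding: mean log2 CR ≥ 1 and p ≤ 0.05 plus QC filters. Target is the cysteine site.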", "values": [
      {"target": "ZDBF2 C1996", "log2 mean competition ratio": -0.396},
      {"target": "ZNF709 C431(C571)", "log2 mean competition ratio": 0.0791},
      {"target": "ZNF496 C6", "log2 mean competition ratio": 0.347},
      {"target": "ZMYM4 C711 (UniProt Q5VZL5)", "log2 mean competition ratio": 0.123},
      {"target": "ZDHHC4 C337 (UniProt Q9NPG8)", "log2 mean competition ratio": 0.332},
      {"target": "ZNF827 C485", "log2 mean competition ratio": 0.0836},
      {"target": "ZFYVE16 C313 (UniProt Q7Z3T8)", "log2 mean competition ratio": 0.199},
      {"target": "ZFP91 C182 (UniProt Q96JP5)", "log2 mean competition ratio": 0.167},
      {"target": "ZRSR2P1;ZRSR2 C177;(C172)", "log2 mean competition ratio": 0.444},
      {"target": "ZCCHC17 C52 (UniProt Q9NP64)", "log2 mean competition ratio": 0.0977},
      {"target": "ZCCHC8 C607 (UniProt Q6NZY4)", "log2 mean competition ratio": -0.228},
      {"target": "ZC3HC1 C156 (UniProt Q86WB0)", "log2 mean competition ratio": 0.0198},
      {"target": "ZNF644 C202 (UniProt Q9H582)", "log2 mean competition ratio": -0.269},
      {"target": "ZNF618 C619", "log2 mean competition ratio": -0.246},
      {"target": "ZFAND3 C32 (UniProt Q9H8U3)", "log2 mean competition ratio": 0.0972},
      {"target": "ZNF609 C345 (UniProt O15014)", "log2 mean competition ratio": -0.446},
      {"target": "ZMYM1 C159 (UniProt Q5SVZ6)", "log2 mean competition ratio": 0.0436},
      {"target": "ZMYM1 C438 (UniProt Q5SVZ6)", "log2 mean competition ratio": 0.355},
      {"target": "ZNF131 C9 (UniProt P52739)", "log2 mean competition ratio": -0.129},
      {"target": "ZNF644 C1233 (UniProt Q9H582)", "log2 mean competition ratio": 0.341}
    ]},
    {"compound": "ClCC(=O)N[C@H]1CCCc2ccccc12", "test": "log2 mean competition ratio of IA-DTB cysteine labelling (DMSO/compound) (log2 ratio); higher = stronger cysteine engagement by compound", "conditions": "200 µM; treatment time: 4 h; cell line lysate: HEK293T", "procedure": "as §1", "values": [
      {"target": "ZDBF2 C1996", "log2 mean competition ratio": 0.0195},
      {"target": "ZNF709 C431(C571)", "log2 mean competition ratio": 0.404},
      {"target": "ZNF496 C6", "log2 mean competition ratio": 0.252},
      {"target": "ZMYM4 C711 (UniProt Q5VZL5)", "log2 mean competition ratio": 0.0711},
      {"target": "ZDHHC4 C337 (UniProt Q9NPG8)", "log2 mean competition ratio": 0.217},
      {"target": "ZNF827 C485", "log2 mean competition ratio": 0.0267},
      {"target": "ZFYVE16 C313 (UniProt Q7Z3T8)", "log2 mean competition ratio": 0.125},
      {"target": "ZFP91 C182 (UniProt Q96JP5)", "log2 mean competition ratio": 0.172},
      {"target": "ZRSR2P1;ZRSR2 C177;(C172)", "log2 mean competition ratio": 0.18},
      {"target": "ZCCHC17 C52 (UniProt Q9NP64)", "log2 mean competition ratio": 0.0127},
      {"target": "ZCCHC8 C607 (UniProt Q6NZY4)", "log2 mean competition ratio": 0.0576},
      {"target": "ZC3HC1 C156 (UniProt Q86WB0)", "log2 mean competition ratio": -0.0889},
      {"target": "ZNF644 C202 (UniProt Q9H582)", "log2 mean competition ratio": 0.272},
      {"target": "ZNF618 C619", "log2 mean competition ratio": 0.0102},
      {"target": "ZFAND3 C32 (UniProt Q9H8U3)", "log2 mean competition ratio": 0.0563},
      {"target": "ZNF609 C345 (UniProt O15014)", "log2 mean competition ratio": 0.0373},
      {"target": "ZMYM1 C159 (UniProt Q5SVZ6)", "log2 mean competition ratio": -0.00755},
      {"target": "ZMYM1 C438 (UniProt Q5SVZ6)", "log2 mean competition ratio": 0.0938},
      {"target": "ZNF131 C9 (UniProt P52739)", "log2 mean competition ratio": 0.276},
      {"target": "ZNF644 C1233 (UniProt Q9H582)", "log2 mean competition ratio": 0.406}
    ]}
  ]
}
